PubChem BioAssay AID2685 (National Center for Advancing Translational Sciences (NCATS), 2010)
Some of the results follow. Shown are side measurements of this screen, not its main read-out; they come without a call. Compounds called inactive in the main read-out are mostly missing here. Words in brackets tell the shape of the fitted curve; partial curves, single points and poor fits give uncertain potencies.

Assay: qHTS Assay for Lipid Storage Modulators in Drosophila S3 Cells;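 as to cell number change: cells counted by Cell Tracker Red CMTPX staining in the red channel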
Conditions: BODIPY lipid droplet fluorescence, 18-24 h; for cell number change: measured here: cell count max response, cells fed with added oleic acid
Procedure, shortened: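 Drosophila S3 cells loaded with oleic acid (400 uM, as added) and compounds at several concentrations; lipid droplets imaged by 488-nm laser-scanning cytometry, 500–530 nm intensity and object ratio to cell channel. Percent activity normalized to 20 uM Triacsin C.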

[1] = measured here: cell number channel AC50, cells fed with added oleic acid
[2] = measured here: lipid fluorescence (Fed channel) AC50, cells fed with added oleic acid

Compound | cell number change [%] | AC50 [1] | AC50 [2]
O=C(COC(=O)c1ccc(O)cc1)Nc1nccs1 | 16.2 | 2.91 µM [falling, partial curve, poor fit] | 
Cc1ccccc1NS(=O)(=O)c1ccc(C(=O)NCC(c2ccco2)N2CCCCC2)cc1 (configuration not stated) |  |  | 29.1 µM [rising, single point]
Fc1ccc(/C=N/NC(=S)NCCc2ccccc2)cc1F | -5.22 |  | 6.51 µM [falling, single point]
COC(=O)c1ccc(CNC(=O)c2ccc3c(c2)S(=O)(=O)N=C2CCCCCN23)cc1 | -3.68 | 0.517 µM [rising, single point] | 
CC(C)NC(=O)COc1coc(CN2CCN(Cc3ccccc3)CC2)cc1=O | 4.25 |  | 
O=C(Nc1ccc2c(c1)CCC2)c1ncoc1-c1ccccc1F | 24.2 |  | 29.1 µM [rising, single point]
COc1ccc(NC(=O)CSc2nnc(-c3ccc(F)cc3)o2)cn1 | -0.614 | 0.146 µM [falling, full curve, poor fit] | 0.116 µM [falling, full curve, poor fit]
Cc1cc(=O)[nH]c(/N=C(\N)Nc2cccc3ccccc23)n1 | -12 |  | 7.31 µM [rising, partial curve]
Cc1ccsc1/C=N/NC(=O)c1cccc(S(=O)(=O)Nc2ccccc2Cl)c1 | 5.61 |  | 0.13 µM [rising, full curve, poor fit]
Cc1ccccc1NC(=O)C(C)N1C(=O)c2ccccc2C1=O (configuration not stated) | 2.55 |  | 2.91 µM [rising, single point]
CC(=O)c1cccc(NC(=O)CCNC(=O)c2cccc(C)c2)c1 | 25.2 |  | 
COc1ccc(NC(=O)C2CCCN(CCCc3ccccc3)C2)cc1OCC(C)C (configuration not stated) | -39.9 | 16.4 µM [falling, single point] | 
NC(=O)C1CC(=O)N(c2ccc(OCC(=O)Nc3ccc(Cl)cc3)cc2)C1 (configuration not stated) | -11.5 |  | 29.1 µM [falling, single point]
CC(C(=O)Nc1ccc(Cl)cc1Cl)N1C(=O)NC2(CCCC2)C1=O (configuration not stated) | -0.833 |  | 
CCc1nnc(NC(=O)c2cc(S(=O)(=O)N3CCCCC3)ccc2C)s1 | 10.7 |  | 0.0082 µM [rising, full curve, poor fit]
COc1ccc(C)cc1NC(=O)CN1C(=O)COc2ccc(C)cc21 | -2.58 |  | 3.66 µM [rising, single point]

Compound | cell number change [%] | AC50 [1] | AC50 [2]
COc1ccc(CCNC(=O)C2CCN(S(=O)(=O)c3ccc(SC)cc3)CC2)cc1 | -11.8 |  | 
COc1ccc(N2CCN(C(=O)COC(=O)CNC(=O)c3ccc(Cl)cc3Cl)CC2)cc1 | -50 | 0.82 µM [falling, full curve, poor fit] | 
O=C(c1ccc(S(=O)(=O)Nc2ccccc2F)cc1)N1CCN(c2ccccc2O)CC1 | 29.3 |  | 
O=C(Nc1cccc(NC(=O)c2ccc3c(c2)OCO3)c1)c1ccccc1 |  | 2.31 µM [rising, partial curve] | 
COc1nc(N)nc(N)c1NS(=O)(=O)c1ccc(C)cc1 | 28.7 |  | 0.0461 µM [rising, full curve, poor fit]
C=CCn1c(SCc2nc3cc(C(F)(F)F)ccc3c(=O)[nH]2)nc2sc(CC)cc2c1=O | 1.9 |  | 
CN1CCN(NS(=O)(=O)c2ccc(Cl)cc2)CC1 | 6.96 |  | 18.4 µM [rising, partial curve]
Cc1ccc(-c2nnc(SCC(=O)O)n2N)cc1 | -25.7 | 0.259 µM [falling, full curve, poor fit] | 2.31 µM [falling, full curve]
C/C(=N/NC(=O)c1ccc(Br)o1)c1ccncc1 | -72.2 | 5.8 µM [falling, single point] | 
O=C(Cn1ccc(C(F)(F)F)n1)N/N=C/c1ccc(N2CCOCC2)cc1 |  |  | 0.184 µM [falling, partial curve]
CCOc1cc(CNCc2cccs2)cc(Br)c1OCC | -21.9 |  | 0.00517 µM [falling, full curve, poor fit]
O=C(CN1CCCC1)NCc1ccccc1 | 10.5 |  | 2.31 µM [rising, full curve]
O=C(CNC(=O)c1ccco1)NCC(=O)OCc1cccc(Cl)c1 | 8.97 |  | 4.61 µM [rising, full curve, poor fit]
CC(C)(C)c1ccc(C(=O)Nc2ccc3c(c2)C(=O)NC3=O)cc1 | 21.3 |  | 29.1 µM [rising, single point]
N=c1oc2ccccc2cc1C(=O)NC1CCCCCC1 |  | 0.92 µM [rising, single point] | 29.1 µM [falling, single point]
COc1ccc(/C=C2\Sc3ccc(C(=O)N4CCCC4)cc3N(C)C2=O)cc1OC | 9.57 | 3.66 µM [falling, partial curve, poor fit] | 

Given field by field: entries from further up.
Cc1ccc(-c2nnc(SCC(=O)O)n2N)cc1
  cell number change [%]: -25.7; AC50 [1]: 0.259 µM [falling, full curve, poor fit]; AC50 [2]: 2.31 µM [falling, full curve]
C/C(=N/NC(=O)c1ccc(Br)o1)c1ccncc1
  cell number change [%]: -72.2; AC50 [1]: 5.8 µM [falling, single point]
